Results on three substances are retold here after US7807783.

The chains behind the UniProt entries cited, without tags or fusion partners. Where a name states a change or a piece, a line headed by the entry shows the natural chain unless it says otherwise. Residues count along the entry.
UniProt P04386: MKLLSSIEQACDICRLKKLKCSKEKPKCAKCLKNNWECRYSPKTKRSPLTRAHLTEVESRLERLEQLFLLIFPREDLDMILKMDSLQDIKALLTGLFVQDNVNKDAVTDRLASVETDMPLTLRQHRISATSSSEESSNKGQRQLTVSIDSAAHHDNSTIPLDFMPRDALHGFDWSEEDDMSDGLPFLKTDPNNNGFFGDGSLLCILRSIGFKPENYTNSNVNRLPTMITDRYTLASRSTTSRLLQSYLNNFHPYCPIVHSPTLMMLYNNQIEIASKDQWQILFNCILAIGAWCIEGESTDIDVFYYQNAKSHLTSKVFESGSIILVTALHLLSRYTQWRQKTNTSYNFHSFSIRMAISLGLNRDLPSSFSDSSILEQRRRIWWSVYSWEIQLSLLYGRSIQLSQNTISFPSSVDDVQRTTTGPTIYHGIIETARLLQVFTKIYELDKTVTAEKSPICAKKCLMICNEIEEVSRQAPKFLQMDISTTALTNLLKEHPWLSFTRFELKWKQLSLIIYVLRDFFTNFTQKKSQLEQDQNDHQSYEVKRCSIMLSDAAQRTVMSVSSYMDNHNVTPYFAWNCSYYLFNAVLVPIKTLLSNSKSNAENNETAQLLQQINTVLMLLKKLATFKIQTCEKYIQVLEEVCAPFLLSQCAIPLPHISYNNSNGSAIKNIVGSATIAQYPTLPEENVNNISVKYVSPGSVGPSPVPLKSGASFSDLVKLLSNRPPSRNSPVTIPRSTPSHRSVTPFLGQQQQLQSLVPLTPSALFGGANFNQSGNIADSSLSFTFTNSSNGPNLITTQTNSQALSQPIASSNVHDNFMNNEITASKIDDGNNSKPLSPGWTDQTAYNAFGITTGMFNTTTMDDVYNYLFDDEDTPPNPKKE
UniProt P25445, residues 191-335: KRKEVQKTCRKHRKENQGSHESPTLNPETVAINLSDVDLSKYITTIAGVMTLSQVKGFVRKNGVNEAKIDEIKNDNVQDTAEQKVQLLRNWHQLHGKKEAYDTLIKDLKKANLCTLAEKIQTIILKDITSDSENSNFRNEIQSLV
UniProt Q13158: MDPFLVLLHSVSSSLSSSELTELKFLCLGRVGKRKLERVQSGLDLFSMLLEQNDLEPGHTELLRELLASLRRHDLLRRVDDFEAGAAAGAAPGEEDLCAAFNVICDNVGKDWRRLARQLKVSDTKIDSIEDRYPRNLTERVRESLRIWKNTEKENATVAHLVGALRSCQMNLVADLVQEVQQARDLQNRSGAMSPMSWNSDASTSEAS

Results are given in words; binding and its absence hold for the method and conditions named. For part of these data: In cells and extracts the contact can be indirect. Some results given as binding are weak or reduced against the parent protein; the word gives no strength.

The target in assay [1] is T1, GAL4 DNA-binding domain fused to the cytoplasmic tail of the human Fas antigen (GAL4bd-Fas) (human) (UniProt P04386+P25445). In words: yeast two-hybrid, β-galactosidase filter assay in Y190 yeast.
Assay [2] has as its target T1, GAL4 DNA-binding domain fused to the cytoplasmic tail of the human Fas antigen (GAL4bd-Fas) (human). As to the kind of experiment: yeast two-hybrid.
Assay [3] addresses GST-Fas (GST fusion protein containing the cytoplasmic domain of Fas) (UniProt P25445). In words: GST pull-down from lysates of transfected 293T cells.
The target is the same in assay [4]. As to the kind of experiment: GST pull-down from lysates of 293T cells expressing HA-FADD, then anti-HA immunoprecipitation.
Assay [5] has the same target. As to the kind of experiment: GST pull-down on glutathione-Sepharose beads.
Assay [6] shares this target. As to the kind of experiment: GST pull-down of 35S-labeled in vitro translated FADD, SDS-PAGE and autoradiography.

On to “GAL4 activation domain-FADD fusion protein (GAL4ad-FADD) (from UniProt Q13158 1-208)”, for which the binding entry in assay [1] and in assay [2] was “binds” each time.

Turning to “AU1-epitope tagged FADD (AU1-FADD) (from UniProt Q13158 1-208)”, in assay [3], the binding entry was “binds”.

With “HA-epitope tagged FADD (HA-FADD) (from UniProt Q13158 1-208)”, the binding entry in assay [4], in assay [5] and in assay [6] was “binds” each time.
